Experimental findings from US5879657A (The Dupont Merck Pharmaceutical Company, priority 1994, dated 1999) are described below.

A short description of data set [1]: general procedure: Boc solid-phase peptide synthesis; Oxime resin (substitution level 0.96 mmol/g, or Novabiochem 0.62 mmol/g); HBTU or TBTU. Conditions: for isolated yield: whole synthesis, overall; for conjugation yield: conjugation step.
A short description of another data set: peptide synthesis. The following applies: TFA salt.
Where [2] appears, read: late stage modification step, acetate salt.
Setting [3] is: late stage modification step, on protected cyclic peptide, TFA salt.
The mark [4] stands for this setting: late stage modification step, TFA salt.

Consider “Cyclo-(D-Abu-NMeArg-Gly-Asp-Mamb([^99m TcO(MABA)]^- -5-Aca))”, for which the step yield in data set [1] (setting [2]) was determined as 83%. The isolated yield entry in data set [1] (TFA salt) is on record as “overall yield 13.8%”.
As to “cyclo-(D-Val-NMeArg-Gly-Asp-3-aminomethyl-6-iodobenzoic Acid)”, the step yield in the data set “peptide synthesis” (coupling step) was 61%. In the data set “peptide synthesis” (cyclisation step), the cyclisation yield stood at 38%.
On to “cyclo-(D-Val-NMeArg-Gly-Asp-3-aminomethyl-6-chlorobenzoic acid)”, for which the step yield in data set [1] (setting [3]) is given as 54%.
As to cyclo-(Abu-NMeArg-Gly-Asp-Mamb), the isolated yield result in data set [1] (TFA salt) is listed as “overall yield 0.574%”.
In the case of cyclo-(D-Nle-NMeArg-Gly-Asp-Mamb), in data set [1] (purification step, TFA salt), the step yield was found to be 44% recovery. Besides, the isolated yield entry in data set [1] (TFA salt) is on record as “overall yield 22.9%”.
Regarding “Cyclo-(D-Val-NMeArg-Gly-Asp-Mamb([^99m TcO(MA-MAMA)]-5-Aca))”, the step yield worked out at 86% in data set [1] (setting [2]) and 57% recovery in data set [1] (purification step, TFA salt). The isolated yield entry in data set [1] (TFA salt) was “overall yield 58.1%”.
Turning to cyclo-(D-Val-NMeArg-Gly-Asp-Mamb), the results for the step yield in data set [1] (setting [4]) and in data set [1] (setting [2]) were 70% and 82%, respectively.
On to cyclo-(D-Leu-NMeArg-Gly-Asp-Mamb), for which the step yield in data set [1] (setting [4]) is listed as 63%; in data set [1] (purification step, TFA salt) it was 29% recovery. For the same substance, the isolated yield entry in data set [1] (TFA salt) is “overall yield 16.5%”.
Turning to “Cyclo-([[^99m TcO(MAG3)]^- -D-Lys]-NMeArg-Gly-Asp-Mamb)”, the step yield in data set [1] (purification step, TFA salt) was determined as 6.4% recovery. For the same substance, the isolated yield result in data set [1] (TFA salt) is on record as “overall yield 3.3%”.
Take cyclo-(D-Phe-NMeArg-Gly-Asp-Mamb): in data set [1] (purification step, TFA salt), the step yield was found to be 35% recovery. In addition, the isolated yield result in data set [1] (TFA salt) was “overall yield 8.7%”.
In the case of “Cyclo-([[^99m TcO(MA-MAMA)]-D-Lys]-NMeArg-Gly-Asp-Mamb)”, in data set [1] (purification step, TFA salt), the step yield is 15.5% recovery. Besides, the isolated yield result in data set [1] (TFA salt) is given as “overall yield 10.5%”.
For the substance “Cyclo-(D-Lys(5-Aca)-NMeArg-Gly-Asp-Mamb)”, the step yield in data set [1] (setting [4]) amounted to 70%.
As for “Boc-D-Lys(Tfa)-N-MeArg(Tos)-Gly-Asp(OBzl)-Mamb”, in data set [1] (coupling step, TFA salt), the step yield amounted to 78%.
As for “^111 In-DTPA-[Cyclo-(D-Lys-NMeArg-Gly-Asp-Mamb)]2”, the step yield was determined as 92.3% yield in data set [1] (late stage modification step, fluoride salt) and 13.2% recovery in data set [1] (purification step, TFA salt). For the same substance, the isolated yield result in data set [1] (TFA salt) is listed as “overall yield 7.4%”.
In the case of “Cyclo-(D-Lys-NMeArg-Gly-Asp-Mamb)-N-[4-(carboxy)benzyl]-N,N'-bis[(2-triphenylmethylthio)ethyl]glycinamide Conjugate”, the conjugation yield in data set [1] (TFA salt) was determined as 60%.
In the case of “Cyclo-(D-Val-NMeArg-Gly-Asp-Mamb([^99m TcO(MABA)]^- -5-Aca))”, the step yield in data set [1] (purification step, TFA salt) was 36% recovery. For the same substance, in data set [1] (TFA salt), the isolated yield result is given as “overall yield 19.9%”.
Take “Cyclo-(D-Val-NMeArg-Gly-Asp-Mamb(5-Aca))”: in data set [1] (TFA salt), the isolated yield entry is “overall yield 13.5%”.
Regarding “Cyclo-(D-Lys(Tfa)-N-MeArg(Tos)-Gly-Asp(OBzl)-Mamb)”, the cyclisation yield in data set [1] (cyclisation step, TFA salt) amounted to 57%.
Regarding cyclo-(D-Phg-NMeArg-Gly-Asp-Mamb), the step yield in data set [1] (purification step, TFA salt) is 24.2% recovery. Besides, the isolated yield result in data set [1] (TFA salt) is “overall yield 11.9%”.
Consider Cyclo-(D-Lys(Tfa)-N-MeArg-Gly-Asp-Mamb), for which, in data set [1] (setting [4]), the step yield was determined as 100%.
On to “Boc-D-Val-NMeArg (Tos)-Gly-Asp(OcHex)-MAMB-Ox”, for which the step yield in data set [1] (coupling step, TFA salt) worked out at 86%.
As to “HCl.D-Lys(Tfa)-N-MeArg(Tos)-Gly-Asp(OBzl)-Mamb”, in data set [1] (setting [4]), the step yield stood at 98%.
On the same count and under the same terms, the value for “TFA.D-Val-NMeArg(Tos)-Gly-Asp(OcHex)-MAMB-Ox” was 98%.
On to “cyclo-(D-Val-NMeArg-Gly-Asp-3-aminomethyl-6-methoxybenzoic acid)”, for which the step yield in data set [1] (setting [3]) turned out to be 63%.
With “Cyclo-([[^99m TcO(mapt)]^- -D-Lys]-NMeArg-Gly-Asp-Mamb)”, the step yield in data set [1] (setting [2]) came out at 97%; in data set [1] (purification step, TFA salt), 14.7% recovery. In data set [1] (TFA salt), the isolated yield result was “overall yield 7.9%”.
For the substance “Bolton-Hunter conjugate of cyclo[D-Lys-N-MeArg-Gly-Asp-MAMB]”, the step yield in data set [1] (setting [4]) amounted to 60%.
For the substance cyclo-(D-Val-D-NMeArg-Gly-Asp-Mamb), the step yield in data set [1] (purification step, TFA salt) worked out at 14.8% recovery. Moreover, the isolated yield result in data set [1] (TFA salt) is listed as “overall yield 5.3%”.
In the case of “Cyclo-(D-Abu-NMeArg-Gly-Asp-Mamb([^99m TcO(MeMAG2 gaba)]^- -5-Aca))”, the step yield came to 79% in data set [1] (setting [2]) and 5.8% recovery in data set [1] (purification step, TFA salt). Also, in data set [1] (TFA salt), the isolated yield result is “overall yield 2.1%”.
With “Cyclo-(D-Val-NMeArg-Gly-Asp-Mamb(5-Aca))-N-[4-(carboxy)benzyl]-N,N'-bis[(2- triphenylmethylthio)ethyl]-glycinamide Conjugate”, the conjugation yield in data set [1] (TFA salt) is 53%.
